Experiment: Airway (oral cavity) breath VOC analysis by ATD/GC/MS in patients with oral malodor
Parameters: species or system human
Conditions: oral cavity breath samples of patients with strong offensive oral malodor, all patients combined; thirty most abundant VOCs

Row | SMILES | Mean relative abundance (mean value of ratio to abundance of an internal standard)
1 | C=CC(=C)C [1,3-Butadiene, 2-methyl-] | 3.87
2 | C=C(C)C [1-Propene, 2-methyl-] | 4
3 | CCC(C)=O [2-Butanone] | 1.11
4 | CC=O [Acetaldehyde] | 0.55
5 | Cc1ccccc1 [Benzene, methyl-] | 8.25
6 | CC(C)(C)C(C)(C)C [Butane, 2,2,3,3-tetramethyl-] | 4.75
7 | CCC(C)C [Butane, 2-methyl-] | 1.21
8 | CC1CCCCC1 [Cyclohexane, methyl-] | 2.63
9 | C1CCCCC1 [Cyclohexane] | 2
10 | CCC1CCCC1 [Cyclopentane, ethyl-] | 0.54
11 | CC1CCCC1 [Cyclopentane, methyl-] | 2.94
12 | CCC(C)CCCCCC(C)(C)C (centres unmarked) [Decane, 2,2,8-trimethyl-] | 0.75
13 | CCCCCCCCC(C)(C)C [Decane, 2,2-dimethyl-] | 3.42
14 | CCO [Ethanol] | 4.64
15 | CCCCCCC [Heptane] | 0.96
16 | CCCC(C)C(C)(C)C (centres unmarked) [Hexane, 2,2,3-trimethyl-] | 0.53
17 | CCC(C)CC(C)(C)C (centres unmarked) [Hexane, 2,2,4-trimethyl-] | 0.57
18 | CC(C)CCC(C)(C)C [Hexane, 2,2,5-trimethyl-] | 4.09
19 | CCCCC(C)C [Hexane, 2-methyl-] | 2.63
20 | CCCC(C)CC (centres unmarked) [Hexane, 3-methyl-] | 3.18
21 | CCCCCC [Hexane] | 2.84
22 | CCCCC(CCC)CC(C)CC (centres unmarked) [Nonane, 3-methyl-5-propyl-] | 3.59
23 | CCC(C)(C)C(C)C [Pentane, 2,3,3-trimethyl-] | 0.75
24 | CC(C)C(C)C(C)C [Pentane, 2,3,4-trimethyl-] | 0.72
25 | CCC(C)C(C)C (centres unmarked) [Pentane, 2,3-dimethyl-] | 1.5
26 | CCCC(C)C [Pentane, 2-methyl-] | 0.75
27 | CCC(CC)C(C)(C)C [Pentane, 3-ethyl-2,2-dimethyl-] | 0.82
28 | CCC(C)CC [Pentane, 3-methyl-] | 1.01
29 | CCCCCCCCC(C)CC (centres unmarked) [Undecane, 3-methyl-] | 1.38
